Data as given in PubChem BioAssay AID504804 (Drosophila RNAi Screening Center, 2011).

- Purpose: 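dsRNAs that improve Kc cell survival under doxorubicin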 (primary screen)
- Cells: Drosophila Kc cells
- Reagents: long dsRNA against Drosophila genes, 0.5 µg dsRNA per well
- Timing: 96 h (48 h knock-down, then 48 h drug)
- Treatment: doxorubicin 5 µg/ml for 48 h, added 48 h after dsRNA
- Detection: 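Luminescent ATP counts per replicate, not normalised, reflecting viable cells after 48 h dsRNA knock-down followed by 48 h of 5 µg/ml doxorubicin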
- Scale: raw ATP luminescence: higher = more viable cells, protection from doxorubicin
- Rule for the call: 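Active when both duplicate wells lie at least 2 SD above the plate mean and protection is confirmed by rescreening and independent dsRNAs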
The deposit covers about 19,000 reagents; this is an unselected part of those with a known target gene and a result. Over the whole deposit, 47 (0.25%) were called active. 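Signals are raw, not normalised; exact z-scores behind calls not deposited; actives needed confirmation, so some wells reaching 2 SD are inactive.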 Names joined by + are all predicted targets of the reagent.

target	DRSC id	SD above plate mean	raw ATP luminescence, replicate 1	raw ATP luminescence, replicate 2	outcome
scaf (scarface)	DRSC04849		62367	60187	inactive
CG34030	DRSC08866		2.00e5	1.68e5	inactive
PCB (Pyruvate carboxylase)	DRSC05939		66273	53480	inactive
pre-mod(mdg4)-W + pre-mod(mdg4)-Y + mod(mdg4) + 3 more	DRSC16328		26720	25300	inactive
CG32572	DRSC19525		3.23e5	3.18e5	inactive
CG32572	DRSC19526		3.46e5	3.16e5	inactive
CG31546	DRSC12317		97193	33380	inactive
UGP (UDP-glucose pyrophosphorylase)	DRSC10411		39723	31357	inactive
Khc-73 (Kinesin heavy chain 73)	DRSC07449		56597	71270	inactive
CG10211	DRSC02027		32990	99673	inactive
Jon65Ai (Jonah 65Ai)	DRSC09731		96340	78560	inactive
CheB38a (Chemosensory protein B 38a)	DRSC03205		57780	61983	inactive
kar (karmoisin)	DRSC14496		55313	28767	inactive
CG12384	DRSC06145		71760	44623	inactive
Scp1 (Sarcoplasmic calcium-binding protein 1)	DRSC20799		2.16e5	2.89e5	inactive
Scp1 (Sarcoplasmic calcium-binding protein 1)	DRSC20803		2.48e5	2.56e5	inactive
Scp1 (Sarcoplasmic calcium-binding protein 1)	DRSC20806		2.84e5	3.61e5	inactive
CG31275	DRSC16919		59480	64300	inactive
CG18210 (retired record)	DRSC19089		2.43e5	2.86e5	inactive
CG13362	DRSC17897		53930	68490	inactive
chas (chascon)	DRSC19508		3.37e5	3.18e5	inactive
chas (chascon)	DRSC19509		3.02e5	2.60e5	inactive
Fit1 (Fermitin 1)	DRSC08450		35043	42670	inactive
CG11370	DRSC11653		52790	47543	inactive
CG3690	DRSC18170		57560	64590	inactive
CG3690	DRSC18641		57850	53560	inactive
LManVI (Lysosomal alpha-mannosidase VI)	DRSC03224		44867	70700	inactive
squ (squash)	DRSC01549		2.86e5	2.80e5	inactive
Spn42Db (Serpin 42Db)	DRSC05009		29533	1.12e5	inactive

Reprinted from the entries so far for reference:
target	DRSC id	SD above plate mean	raw ATP luminescence, replicate 1	raw ATP luminescence, replicate 2	outcome
CG18210 (retired record)	DRSC19089		2.43e5	2.86e5	inactive
CG13362	DRSC17897		53930	68490	inactive
chas (chascon)	DRSC19508		3.37e5	3.18e5	inactive
chas (chascon)	DRSC19509		3.02e5	2.60e5	inactive
Fit1 (Fermitin 1)	DRSC08450		35043	42670	inactive
CG11370	DRSC11653		52790	47543	inactive
CG3690	DRSC18170		57560	64590	inactive
CG3690	DRSC18641		57850	53560	inactive

The list goes on.
target	DRSC id	SD above plate mean	raw ATP luminescence, replicate 1	raw ATP luminescence, replicate 2	outcome
CG6204	DRSC15991		33587	42017	inactive
Orc2 (Origin recognition complex subunit 2)	DRSC16776		63547	26770	inactive
MetRS-m (Methionyl-tRNA synthetase, mitochondrial)	DRSC16443		64657	27970	inactive
MetRS-m (Methionyl-tRNA synthetase, mitochondrial)	DRSC16515		78460	74760	inactive
Vajk1	DRSC01882	2 to 3 SD above plate mean	96113	1.23e5	inactive
Seipin	DRSC18654		50500	67510	inactive
lectin-37Da	DRSC03278		68207	67880	inactive
Timp (Tissue inhibitor of metalloproteases)	DRSC17082		49403	19583	inactive
CG3919	DRSC10389		24743	17967	inactive
mmy (mummy)	DRSC02002		83087	63753	inactive
EndoU (Endoribonuclease U-specific)	DRSC15472		52440	56430	inactive
CG4896	DRSC00671		98730	71890	inactive
Regnase-1 (Regnase 1)	DRSC14278		58553	60997	inactive
CG7988	DRSC16358		67950	87440	inactive
GstS1 (Glutathione S transferase S1)	DRSC07436		66983	70503	inactive
yata	DRSC15408		52430	38680	inactive
CG13014	DRSC19533		3.46e5	2.95e5	inactive
AkhR (Adipokinetic hormone receptor)	DRSC03329		99997	76683	inactive
Cyp6a17 (Cytochrome P450 6a17)	DRSC07378		72223	57700	inactive
pen-2 (presenilin enhancer)	DRSC05722		1.90e5	1.44e5	inactive
CG14759	DRSC06494		33613	77670	inactive
CG12672	DRSC19482		3.34e5	3.40e5	inactive
Icmt (Isoprenylcysteine carboxyl methyltransferase)	DRSC09834		85630	74573	inactive
Cdk8 (Cyclin-dependent kinase 8)	DRSC11113		46437	34957	inactive
Cyp12a4 (Cytochrome P450 12a4)	DRSC16620		39800	36770	inactive
Xrp1	DRSC15282		15390	11940	inactive
Xrp1	DRSC15283		27440	17450	inactive
CG15721	DRSC19688		3.32e5	2.84e5	inactive
